Measurements reported in PubChem BioAssay AID1259308 (NCATS, 2017).
This is one part, drawn at random, of about 59,000 reagents tested. About 1,510 of all reagents (2.6%) were called active. 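Calls use total luciferase alone and ignore viability, so some active siRNAs may act by altering cell number.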 Entries without a mark were called inactive. Reagents against one gene are numbered here. Further read-outs or replicates are left out here. Reagent sequences are not shown.

Screen: 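Knock-downs that increase output of a recombinant reporter protein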 (primary screen)
Cell system: human HEK293 embryonic kidney cells stably expressing firefly luciferase (HEK-CMV-Luc2-Hygro)
Reagents: single siRNA against human genes, 0.8 pmol siRNA per well
Duration: 72 h
Measured: 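Reporter luminescence and viable-cell signal on separate replicate plates, given as percent of non-targeting control and median/MAD z-scores, plus per-cell luciferase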
Reading the numbers: total luciferase, z-score: higher = more reporter protein produced
Rule for the call: 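An siRNA counts as active if its total luciferase robust z-score exceeds 3; genes with two or more such siRNAs out of three were retested with fresh siRNAs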
Calls: active = raised luciferase; inactive = no rise

Depletion of BNIPL #1 gave: total luciferase, z-score 0.58.
Knock-down of BNIPL #2 resulted in: total luciferase, z-score 1.61.
Against BNIPL #3, the values are total luciferase, z-score 0.461.
Silencing of RNF220 #1 resulted in: total luciferase, z-score 0.209.
With knock-down of RNF220 #2, the record shows total luciferase, z-score 0.00133.
RNF220 #3 showed total luciferase, z-score 2.09.

2 entries from above in another layout.
| Target gene | reagent no. | total luciferase, z-score |
| --- | --- | --- |
| RNF220 | 1 | 0.209 |
| RNF220 | 2 | 0.00133 |

The list goes on.
Against INTS1 #1, the entry reads total luciferase, z-score 5.86 (active).
INTS1 #2 scored total luciferase, z-score 2.27.
INTS1 #3 scored total luciferase, z-score 3.31 (active).
With knock-down of HDAC2 #1, the record shows total luciferase, z-score -0.866.
Against HDAC2 #2, the values are total luciferase, z-score -2.44.
After knock-down of HDAC2 #3 the results were total luciferase, z-score -0.283.
